The results in this text go back to patent US20030100503A1 (PROLIFIA, published 2003).

The series deals with the molecule itself. The series is described as follows: yeast two-hybrid, self-association.

B1: murine Mts1 mutant 4S (all four cysteines at positions 76, 81, 86 and 93 changed to serines) (other)
chain: MARPLEEALDVIVSTFHKYSGKEGDKFKLNKTELKELLTRELPSFLGKRTDEAAFQKVMSNLDSNRDNEVDFQEYSVFLSSIAMMSNEFFEGSPDKEPRKK
notes: also called Mts1-4S; 4S mutant; not shown: His6 tag from the pQE30 expression vector
Regarding B1, the binding result is “binds”.
